Test results taken from patent US10864285B2, “Methods for the diagnosis and treatment of Sjögren's syndrome” (The U.S.A., as represented by the Secretary, Department of …, priority 2012, dated 2020).

Tested on: salivary glands of mice
Experiment: Salivary gland morphology (H&E, trichrome) and AQP5 immunofluorescence
Format: in vivo, mouse
Conditions: AAV5BMP6 transduced vs GFP control vector treated mice

B1: BMP6: A member of the TGF-β superfamily of growth factors; added to cultured cells at 6 ng/ml (protein, UniProt P22004 375-513, looked up)
Bone morphogenetic protein 6: SASSRRRQQSRNRSTQSQDVARVSSASDYNSSELKTACRKHELYVSFQDLGWQDWIIAPKGYAANYCDGECSFPLNAHMNATNHAIVQTLVHLMNPEYVPKPCCAPTKLNAISVLYFDDNSNVILKKYRNMVVRACGCH
  Extracellular matrix and acini morphology: thickening of the extracellular matrix surrounding the acini and enlarged acini
